From patent publication US20200345862A1, “TRANSITION METAL-BASED FUNCTIONAL MOIETIES FOR PREPARING CELL TARGETING CONJUGATES” (priority 2017, published 2020)

Tested on: Trastuzumab (Herceptin®)
Test: Conjugation efficiency of halido semi-final products (SFMs) to trastuzumab, SEC at 430 nm
Conditions: 47° C.
[1] = 10 mM NaI in conjugation mixture, 5.0 eq. SFM, pH 8.1, 24 h conjugation time, FIG. 2
[2] = no NaI in conjugation mixture, 5.0 eq. SFM, pH 8.1, 24 h conjugation time, FIG. 1

Substance	conjugation efficiency [1] [%]	conjugation efficiency (corresponding halide salt: 50 mM NaBr, pH 8.1, 24 h, FIG. 3) [%]	conjugation efficiency [2] [%]	conjugation efficiency (corresponding halide salt: 200 mM NaCl, pH 8.1, 24 h, FIG. 3) [%]	conjugation efficiency (corresponding halide salt: 10 mM NaI, pH 8.1, 24 h, FIG. 3) [%]
[(Fe)DFO-pip-PtBr(ethane-1,2-diamine)]^+ TFA^− [5d]	79	74	42		
[PtCl((Fe)DFO-pip)(ethane-1,2-diamine)]^+ TFA^− [4a]	79		39	34	
[Pt((Fe)DFO-suc-pip)(ethane-1,2-diamine)I]^+ TFA^− [6k]	80		58		90
